# Measured values reported in the supplement of paper PMC11150407.
# The campaign covered roughly 3,000 compounds. About 45 (2%) showed an effect of 50% or more. Some of the results follow.
# Tested on: MOLM1 and UCSD/AML1 (averaged)
# Assay: cell viability relative to DMSO control (POC); higher = less growth inhibition
# Details: 1 µM; 72 h
# Experimental: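 Primary viability screen in the 3q26 EVI1-high AML cell lines MOLM1 and UCSD/AML1, compounds at 1 uM for 72 h. ATP CellTiter-Glo read-out given as percent viable over DMSO control (POC), averaged over duplicates. This mapping covers the TimTec NDL-3000 natural derivative library, whose compounds are identified by TimTec catalogue codes (ST...).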
row,Structure (SMILES),cell viability
1,COc1cc(C2C(C#N)=C(N)Oc3n[nH]c(C(C)C)c32)ccc1O (configuration not stated),104%
2,COc1cc(N)cc(CCC(=O)O)c1OC,91%
3,O=C(/C=C/c1ccc(Cl)cc1Cl)c1cccc2ccccc12,95.1%
4,O=C(/C=C/c1cccc(NC(=O)c2ccc(Br)cc2)c1)c1cccc(NC(=O)c2ccc(Br)cc2)c1,1.83%
5,CCOc1ccccc1-c1nc(CSc2nc3c(=O)[nH]cnc3n2-c2ccc(C)cc2)c(C)o1,101%
6,CCCCc1[nH]nc2c1C(c1cc(OC)c3c(c1)OCO3)C(C#N)=C(N)O2 (configuration not stated),102%
7,CC(=O)N1CCc2ccccc2C1,104%
8,COC(=O)/C(C#N)=C/c1cc(OC)cc(OC)c1,90.6%
9,CCOC(=O)c1c(CN2CCCCC2)n(-c2ccccc2)c2cc(Br)c(OC)cc12,90.2%
10,Cc1c(-c2cccc(Cl)c2)c(=O)oc2cc(O)ccc12,103%
11,CCOC(=O)C(Cc1ccccc1)NC(=O)c1ccccc1 (configuration not stated),103%
12,COc1cccc(C(=O)N2CCN(C(=O)c3cccc(OC)c3OC)CC2)c1,103%
13,COCCOC(=O)c1c(C)n(CCCNc2ccc([N+](=O)[O-])cc2Cl)c2c1cc(O)c1ccccc12,92.1%
14,O=C(Cc1n[nH]c(=O)[nH]c1=O)N/N=C/c1c(O)ccc2ccccc12,109%
15,CCc1ccc(C(c2c(O)c3cccc(-c4ccccc4)c3[nH]c2=O)c2c(O)c3ccccc3n(-c3ccccc3)c2=O)cc1 (configuration not stated),99.8%
16,COc1ccc(Cl)cc1NC(=O)CSc1nc2c(=O)[nH]cnc2n1C,97.5%
17,O=c1oc2cc(O)ccc2c(Cc2ccccc2)c1-c1ccccc1,95.9%
18,N#Cc1nc2ccccc2n1CC(=O)NCc1ccc2c(c1)CCC(=O)N2,107%
19,NC(=O)NCCCCC(N)C(=O)O (configuration not stated),95.9%
20,O=C(CN1CCc2ccccc2C1)Nc1ccc(S(=O)(=O)N2CCOCC2)cc1,108%
21,Cc1[nH]c2ccc(O)cc2c1C(=O)O,108%
22,COc1ccc(/C=C/C(C)=O)cc1,94.9%

row,Structure (SMILES),cell viability
1,Cc1[nH]c2ccccc2c1CCNC(=O)c1cc(S(=O)(=O)NC2CC2)c(Cl)cc1Cl,96.6%
2,C#CCOc1ccc(C2Nc3ccccc3NC3=C2C(=O)CC(C)(C)C3)cc1 (configuration not stated),96.1%
3,COc1ccc(C(=O)[C@@H]2[C@H]3C4COC(O4)C(=O)[C@@H]3[C@H]3C=Cc4ccccc4N32)cc1 (some centres not stated),104%
4,COc1ccc2cc(-c3cccc(Cl)c3)c(=O)oc2c1,109%
5,COc1ccc(CC(=O)N/N=C/c2c(O)c(O)c(C(C)C)c3cc(C)c(-c4c(C)cc5c(C(C)C)c(O)c(O)c(/C=N/NC(=O)Cc6ccc(OC)c(OC)c6)c5c4O)c(O)c23)cc1OC,103%
6,COc1cc(C(=O)NC(C(=O)OCCC(C)C)c2ccccc2)cc(OC)c1OC (configuration not stated),92.6%
7,CC(=O)c1cc(O)cc(O)c1,101%
8,COc1ccc(NC(=O)c2cc(OC)c(OC)c(OC)c2Br)cc1OC,92.4%
9,CCn1c(SCC(=O)Nc2ccc(C)c(C)c2)nc2c(=O)[nH]cnc21,94.7%
10,CCn1cc(/C=C/C(=O)c2ccc(O)cc2)c(C)n1,114%
11,CCOc1ccccc1NC(=O)CSc1nc2c(=O)[nH]cnc2n1C,111%
12,CCOc1ccc(NC(=O)CSc2nc3c(=O)[nH]cnc3n2-c2ccc(C)cc2)cc1,100%
13,C1COCCN1.COC(=O)C1=C(C)NC(=S)C(=C=N)C1c1cc(OC)c(OC)c(OC)c1 (configuration not stated),117%
14,CC(=O)NC(Cc1cc2ccccc2[nH]1)C(=O)NCc1ccco1 (configuration not stated),98.6%
15,COc1ccc2oc(=O)cc(CN3CCN(Cc4ccccc4F)CC3)c2c1,90.8%
16,CCOc1ccccc1/C=N/NC(=O)CNc1n[nH]c(=O)[nH]c1=O,102%
17,Cc1ccc(C)c2c1NC(C(=O)O)C1CC=CC21 (configuration not stated),97%
18,S=c1nc[nH]c2nc[nH]c12,89.3%
19,COc1ccc(-c2nc(CSc3nc4ccccc4c(=O)[nH]3)c(C)o2)cc1,94.9%
20,COc1ccc2c(C)nc(/N=C(\N)NC(C)=O)nc2c1,90%
21,Cc1ccc(NC(=O)c2cc3ccccc3oc2=N)cc1C,94.9%
22,CCOc1cc2c(cc1OCC)C(c1ccc(C(=O)O)cc1)NCC2 (configuration not stated),97.7%

row,Structure (SMILES),cell viability
1,C=CCn1c(=O)n(CC=C)c(=O)n(CC=C)c1=O,88%
2,CCN(CC)C(=O)c1cc(=O)n(CC(=O)Nc2cccc(F)c2)c2ccccc12,96.5%
3,Cn1c(=O)cc(C(=O)O)[nH]c1=O,97.9%
4,COc1ccc(-c2nc(CSc3nc4c(=O)[nH]cnc4n3C)c(C)o2)cc1OC,88.7%
5,O=c1oc2cc(O)ccc2cc1-c1cccc(Br)c1,99.9%
6,COc1cc(-c2nnc(CSc3nc(-c4ccccc4)c(-c4ccccc4)[nH]3)o2)cc(OC)c1OC,103%
7,O=c1cc(-c2ccccc2)oc2c(Br)cc(Br)cc12,113%
8,CCOC(=O)c1c(CC(C#N)(c2ccccc2)c2ccccc2)n(C)c2cc(Br)c(OC)cc12,17.7%
9,Cc1ccccc1OCC(=O)NC(Cc1c[nH]c2ccccc12)C(=O)O (configuration not stated),101%
10,O=C(O)c1cc(O)c(O)c(O)c1,94.8%
11,Cc1ccc2c(c1)C(=O)N(CC(=O)O)C2=O,99.9%
12,CCCCc1c(O)c2ccccc2n(-c2ccccc2)c1=O,94.3%
13,CS(=O)(=O)NC(Cc1c[nH]c2ccccc12)C(=O)O (configuration not stated),102%
14,CCc1ccc(C(CC(=O)c2ccc3c(c2)OCO3)Nc2ccc(Cl)cc2)cc1 (configuration not stated),102%
15,CCOC(=O)c1sc(N)nc1-c1ccccc1,110%
16,Cn1c(=O)c2c(nc(NCCOc3ccc(C(C)(C)C)cc3)n2C)n(C)c1=O,98.4%
17,COc1cc(C2C(C#N)=C(N)Oc3n[nH]c(C)c32)ccc1O (configuration not stated),110%
18,COc1cc2c(cc1/C=C(\C#N)c1ccc(Cl)cc1)OCO2,98.9%
19,CC(=O)N1CCCCC1c1cccnc1.O.O.[Cl][Cu][Cl] (configuration not stated),114%
20,COC(=O)C1=C(C)NC2=C(C(=O)CCC2)C1c1coc2ccc(Cl)cc2c1=O (configuration not stated),116%
21,CC(=O)N1CC2c3ccccc3CCN2C1c1ccccc1 (configuration not stated),101%
22,CCCNC(=O)c1cc(=O)n(CC(=O)Nc2ccccc2C)c2ccccc12,113%

row,Structure (SMILES),cell viability
1,Cc1ccc(OCC(=O)c2cc(C)c(O)cc2O)cc1,88.2%
2,COC(=O)C1=C(N)Oc2c(oc(CO)cc2=O)C1c1cc(Cl)ccc1Cl (configuration not stated),101%
3,CO[C@@H]1O[C@H](C(=O)O)[C@H]2OC(C)(C)O[C@@H]12,94.4%
4,Cc1ccc(S(=O)(=O)N2Cc3ccccc3CC2C(=O)NCc2ccc(Br)cc2)cc1 (configuration not stated),110%
5,COc1cc(C(=O)NCc2cccnc2)ccc1OCc1ccc(Cl)cc1,89.2%
6,O=C1OC2C3CC(C2Sc2ccc([N+](=O)[O-])cc2)C(C(=O)O)C13 (configuration not stated),93.4%
7,CCCNC(=O)c1cc(=O)n(CC(=O)Nc2cccc(C)c2C)c2ccccc12,100%
8,COc1ccc(C(=O)Nc2sc3c(c2C(=O)OC(C)C)CCCC3)cc1OC,97.2%
9,CC(=O)OC1CCC2(C)C(CCC3(C)C2C(=O)C=C2C4CC(C)(C(=O)Nc5ccc(Cl)c(Cl)c5)CCC4(C)CCC23C)C1(C)C (configuration not stated),104%
10,CCOC(=O)c1sc(N2N=C(C)/C(=C\c3ccc4c(c3)OCO4)C2=O)nc1C,86.8%
11,COc1ccc(/C=C/C(=O)c2ccc(NC(C)=O)cc2)cc1OC,89.8%
12,O=C(O)/C=C/c1ccc(S(=O)(=O)N2CCCC2)cc1,101%
13,CCc1c(-c2ccccc2)n(-c2cccc(Cl)c2)c2nc3c(c(=O)n(C)c(=O)n3C)n12,97.4%
14,CC(C)c1ccc(/C=C/C(=O)N2CCC3(O)CCCCC3C2c2ccc(F)cc2)cc1 (configuration not stated),77.9%
15,O=c1oc2cc(O)ccc2cc1-c1cccc(Cl)c1,96.1%
16,O=C(Nc1c(C(=O)Nc2ccccc2)c2ccccc2[nH]c1=O)c1ccccc1,99.5%
17,Cc1ccc(-n2c(SCC(=O)Nc3cccc(C)c3C)nc3c(=O)[nH]cnc32)cc1,97.8%
18,O=C(O)CNC(=O)c1cccc(F)c1,110%
19,CCCCOc1ccc(C2=NOC(=O)/C2=C\c2cccc([N+](=O)[O-])c2O)cc1,107%
20,COc1ccc(-c2nc(CSc3nc4c(=O)[nH]cnc4n3-c3ccc(C)cc3)c(C)o2)cc1OC,111%
21,COc1cc(C2C3CCCCC3(O)CCN2Cc2ccccc2Cl)ccc1O (configuration not stated),97.2%
22,COc1ccc2c(c1)c(CC(=O)NCc1cc(OC)c(OC)c(OC)c1)c(C)n2C(=O)c1ccc(Cl)cc1,99%

# Copied from the list.
# Under cell viability, COc1ccc(C(=O)Nc2sc3c(c2C(=O)OC(C)C)CCCC3)cc1OC is entered as 97.2%
# Under cell viability, C1COCCN1.COC(=O)C1=C(C)NC(=S)C(=C=N)C1c1cc(OC)c(OC)c(OC)c1 (configuration not stated) is entered as 117%
# Under cell viability, CCCCc1[nH]nc2c1C(c1cc(OC)c3c(c1)OCO3)C(C#N)=C(N)O2 (configuration not stated) is entered as 102%
# Under cell viability, COC(=O)C1=C(C)NC2=C(C(=O)CCC2)C1c1coc2ccc(Cl)cc2c1=O (configuration not stated) is entered as 116%

# Remaining list, next part:

row,Structure (SMILES),cell viability
1,O=C(CSc1nc2ccccc2c(=O)[nH]1)Nc1ccc(F)cc1,93.9%
2,CCOc1ccccc1NC(=O)CSc1nc2ccccc2c(=O)[nH]1,101%
3,CCN(CC)c1ccc2[nH]c3c(C(N)=O)cc(=O)c(=O)c=3oc2c1,3.99%
4,CCCC(=O)Oc1ccc2c(C)cc(=O)oc2c1,93%
5,CCc1cccc2c(CCNC(=O)c3ccccc3OC)c(C)[nH]c12,101%
6,O=[N+]([O-])c1cc(NC2CC(O)C(O)CO2)cc(Sc2ccccc2)c1 (configuration not stated),93.6%
7,Nc1[nH]c(=O)nc2nc[nH]c12,99%
8,O=C(/C=C/c1ccccc1)c1ccc(O)cc1O,96.7%
9,COc1cc(C2C3CCCCC3(O)CCN2CC(=O)Nc2cccc3ccccc23)ccc1O (configuration not stated),100%
10,COC(=O)C(CCCCNC(=O)c1ccc([N+](=O)[O-])cc1)NC(=O)c1ccc([N+](=O)[O-])cc1 (configuration not stated),92.6%
11,COc1cc(OC)cc(C(=O)c2ccc(C(=O)Nc3ccc4ncccc4c3)cc2)c1,93.5%
12,CCOC(=O)CNC(=O)c1ccc(Cl)cc1Cl,105%
13,COC(=O)/C=C/c1cccc(NS(C)(=O)=O)c1,99.1%
14,Cc1ccc2oc(=O)c([N+](=O)[O-])c(O)c2c1,106%
15,O=C(O)CCCCCCCCCCC(=O)CCCCC(=O)O,97.6%
16,COC(=O)c1ccc(NC(=O)C2Cc3ccccc3CN2S(=O)(=O)c2cccs2)cc1 (configuration not stated),92.8%
17,CC1(C2(O)CCCCC2)NCCc2ccccc21 (configuration not stated),100%
18,O=C(O)c1ccc(CSc2ncnc3nc[nH]c23)cc1,102%
19,O=C1ON=C(c2ccc(Br)cc2)/C1=C/c1ccc2c(c1)OCO2,94.5%
